# PubChem BioAssay AID1508597, Cure First – 2020
# Aim: 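Knock-downs altering ovarian cancer cell survival with or without PARP inhibitor rucaparib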 (primary screen)
# Cells: human ovarian carcinoma lines grown from tumours: OCI-P5x (papillary serous) and OCI-C5x (clear cell)
# Knock-down reagent: siRNA pool against human genes, 1.25 pmol siRNA per well
# Timing: 72 h or 96 h, depending on the cell culture
# Challenge: rucaparib 20 µM (about IC30) or vehicle, present until read-out
# Rucaparib or vehicle: Vehicle
# Cell line: OCI-C5x (clear cell)
# Detection: 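Luminescent ATP-based viability assay read 72 or 96 h after transfection, depending on culture, given as normalised percent viability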
# Direction: viability, normalised: higher = more viable cells remaining
# Rule for the call: 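a well counts as a hit if its normalised viability is under 80 percent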
# Calls: active = viability under 80%; inactive = viability 80% or more
# Shown is an unselected part of the about 2,100 reagents, under one of the conditions tested. 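Calls flag viability under 80% in either arm, not effects specific to rucaparib; the reference for percent is not stated.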 Unmarked entries are inactive. Some reagents were tested in more than one well and are listed for each. The record does not give: the 100% reference.
target gene,technical replicate,"viability, normalised (%)"
ZDHHC15,1,60.8 (active)
ZDHHC15,2,67.8 (active)
ZDHHC15,3,61.9 (active)
PRDM12,1,48.3 (active)
PRDM12,2,38.3 (active)
PRDM12,3,49.5 (active)
SUPT5H,1,29.8 (active)
SUPT5H,2,36.1 (active)
SUPT5H,3,31.4 (active)
FANCG,1,86.3
FANCG,2,74.6 (active)
FANCG,3,80.2
TGFBR2,1,51.2 (active)
TGFBR2,2,45.9 (active)
TGFBR2,3,51.6 (active)
MAPK8,1,87.1
MAPK8,2,67 (active)
MAPK8,3,59.3 (active)
BMP2K,1,67.1 (active)
BMP2K,2,57 (active)
BMP2K,3,57 (active)
XYLB,1,53.6 (active)
XYLB,2,60.3 (active)
XYLB,3,34.6 (active)
PDE7A,1,45.4 (active)
PDE7A,2,43.3 (active)
PDE7A,3,46 (active)
HCK,1,64 (active)
HCK,1,75.7 (active)
HCK,2,53.3 (active)
HCK,2,71 (active)
HCK,3,61.7 (active)
HCK,3,63.1 (active)
ROR2,1,51.8 (active)
ROR2,2,54.1 (active)
ROR2,3,49.4 (active)
MORC3,1,43.9 (active)
MORC3,2,49.5 (active)
MORC3,3,58.8 (active)
SH3KBP1,1,56.5 (active)
SH3KBP1,2,68.8 (active)
SH3KBP1,3,63.3 (active)
XRCC1,1,56.6 (active)
XRCC1,2,73.3 (active)
XRCC1,3,66.6 (active)
TAF5L,1,62 (active)
TAF5L,2,45.9 (active)
TAF5L,3,64.7 (active)
MAP2K5,1,59.9 (active)
MAP2K5,2,58 (active)
MAP2K5,3,57.2 (active)
PARP16,1,42.1 (active)
PARP16,2,31.5 (active)
PARP16,3,47 (active)
ZFP42,1,53.9 (active)
ZFP42,2,44.9 (active)
ZFP42,3,55.2 (active)
GCKR,1,37.8 (active)
GCKR,2,35.5 (active)
GCKR,3,37.1 (active)
RAD17,1,59 (active)
RAD17,2,46.7 (active)
RAD17,3,51.2 (active)
EYA4,1,44.6 (active)
EYA4,2,41 (active)
EYA4,3,48 (active)
DDX50,1,40 (active)
DDX50,2,44.1 (active)
DDX50,3,39 (active)
YY1,1,68.5 (active)
YY1,1,32.6 (active)
YY1,2,56.2 (active)
YY1,2,39.3 (active)
YY1,3,39.5 (active)
YY1,3,58.1 (active)

Sorted by “viability, normalised (%)” (highest first): 11 of the entries above
target gene,technical replicate,"viability, normalised (%)"
XRCC1,2,73.3 (active)
SH3KBP1,2,68.8 (active)
XRCC1,3,66.6 (active)
SH3KBP1,3,63.3 (active)
MORC3,3,58.8 (active)
XRCC1,1,56.6 (active)
SH3KBP1,1,56.5 (active)
ROR2,2,54.1 (active)
MORC3,2,49.5 (active)
ROR2,3,49.4 (active)
MORC3,1,43.9 (active)
